In article PMC7819943, “Rice protein-binding microarrays: a tool to detect cis-acting elements near promoter regions in rice”:
The other results are listed elsewhere or left out.

By UniProt entry, the sequences of proteins in these tests, tags left out.
UniProt Q0JBA9, entry or part of it: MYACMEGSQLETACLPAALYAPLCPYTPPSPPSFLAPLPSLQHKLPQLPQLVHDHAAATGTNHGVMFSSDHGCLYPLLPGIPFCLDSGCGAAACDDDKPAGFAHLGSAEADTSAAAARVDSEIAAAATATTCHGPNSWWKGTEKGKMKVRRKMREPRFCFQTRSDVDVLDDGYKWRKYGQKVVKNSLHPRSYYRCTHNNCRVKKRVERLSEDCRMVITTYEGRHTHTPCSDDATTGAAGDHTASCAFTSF

Biological target: OsWRKY34 (Oryza sativa, UniProt Q0JBA9 1-250)
Assay: protein-binding microarray (RPBM); PBS, 2% BSA, 51.3 ng/ul salmon testes DNA, 50 uM zinc acetate, 200 nM TF, 25 C, 1 h; high values mean tight binding
Settings: protein: recombinant; tags: N-terminal polyhistidine and DsRed monomer fusion (pET32a); label: CyDye5-dUTP incorporated in the synthesized complementary strand; 3' TTTTT single-stranded linker to array surface; dsDNA, one strand shown
Summary of the method: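 Transcription factors were each fused at the N-terminus to a polyhistidine tag plus DsRed and expressed in E. coli BL21-CodonPlus before Ni–NTA purification. Binding to a double-stranded custom Agilent array was carried out with 200 nM protein at 25 °C for 1 h in PBS, 2% BSA, salmon testes DNA and 50 µM zinc acetate. The binding signal is per-feature fluorescence intensity, in arbitrary units, on an Axon 4000B scanner.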

In order of rising binding signal:
1. CACCAAGCATGTCCATGACCTTGCACTCTTGGCTCACTCGCGGAGTCACCTAGTGCAG  8030 fluorescence intensity (a.u.)
2. TCCATGTGACCACTGTAACACTGTCCTGTTTCCAACACCCCGGAGTCACCTAGTGCAG  8030 fluorescence intensity (a.u.)
3. ATGTCTGTTGTGGCCTATAATGGAGGTGTTATTTTTTCATCGGAGTCACCTAGTGCAG  8070 fluorescence intensity (a.u.)
4. GCCTTTTCGCGGACCTTGGATTTGAGGGCGACTTCGGTTCCGGAGTCACCTAGTGCAG  8080 fluorescence intensity (a.u.)
5. GATCTATCTCAATCAACCCACGTGGCCTCACCTCGCCGGACGGAGTCACCTAGTGCAG  8240 fluorescence intensity (a.u.)
6. TGGTAAGGTGACACCATGGCAGTACTGTTATAGCTTATCTCGGAGTCACCTAGTGCAG  8390 fluorescence intensity (a.u.)
7. GATGCAGCGGACGGGGCGGGAGGCGGCGGGGTCCGTCTGCCGGAGTCACCTAGTGCAG  8420 fluorescence intensity (a.u.)
8. GGAAGCCCAAGCCAACCGCCTCGCGACTCCACCGCGTCTCCGGAGTCACCTAGTGCAG  8490 fluorescence intensity (a.u.)
9. TTTCTTGACCGCCGCTGATTCCCTCAAAATTTCTGCATATCGGAGTCACCTAGTGCAG  8490 fluorescence intensity (a.u.)
10. AGTTATGCTAGCTCTGAATTCCTATTGCTTCTTCAGCTGACGGAGTCACCTAGTGCAG  8690 fluorescence intensity (a.u.)
11. CACCGCCGTCACTGCCATCCACCACCGGTCACCACCACACCGGAGTCACCTAGTGCAG  8840 fluorescence intensity (a.u.)
12. CCCATTGAATTAATTTCGGCGTACATACTGGTGCCTTTTCCGGAGTCACCTAGTGCAG  8840 fluorescence intensity (a.u.)
13. GTCATTGTTTGGAGTGGAGTTTTGCTTAGATTAATCTGTCCGGAGTCACCTAGTGCAG  8860 fluorescence intensity (a.u.)
14. AGCTGATCATATGACTCTTTCTAATATCATCTCTCACAATCGGAGTCACCTAGTGCAG  8910 fluorescence intensity (a.u.)
15. CTCGTTGGTGGTTCTCGCCTTGTTGTCGCTGTTCCCGTGCCGGAGTCACCTAGTGCAG  8980 fluorescence intensity (a.u.)
16. GTCATTGATTATTTGTTGTAGCACCTTAAATATTGGTTTTCGGAGTCACCTAGTGCAG  9060 fluorescence intensity (a.u.)
17. TTCTCTCCCTCCCGGCCGCCGCCCCGCCCCGCCCATCTTGCGGAGTCACCTAGTGCAG  9110 fluorescence intensity (a.u.)
18. AGTAGTATGAGATTTGGCTGTTTGTTTGGGCATGCGTCCACGGAGTCACCTAGTGCAG  9140 fluorescence intensity (a.u.)
19. ATTGGGTTCTTGGAGCTGTTGGATTGGGTTTTTTTGGGAGCGGAGTCACCTAGTGCAG  9180 fluorescence intensity (a.u.)
20. GGTCCTATCTCATACCCAACACCCAACCCAACCCAACCCACGGAGTCACCTAGTGCAG  9210 fluorescence intensity (a.u.)
21. TTCTAAACCATTCTTGCCGGCACATGCATTCTTTATGACCCGGAGTCACCTAGTGCAG  9350 fluorescence intensity (a.u.)
22. AATCTCCTAATTATGTATTGCCCAAATCCATTTATTTTCCCGGAGTCACCTAGTGCAG  9430 fluorescence intensity (a.u.)
23. GTCAATATTGGGTGCTGAGTCTTTAACTTCTCATTTATCCCGGAGTCACCTAGTGCAG  9450 fluorescence intensity (a.u.)
24. CTCGCCTTTGATCTTATGCAGGGGCCTGACATAGCTTCTTCGGAGTCACCTAGTGCAG  9470 fluorescence intensity (a.u.)
25. TTGATCTGATGAACTCGGGGTCGGCGGCGTTCTTCGGTTTCGGAGTCACCTAGTGCAG  9540 fluorescence intensity (a.u.)
26. TAGACGTAGATGCGTGGTGTGGCCGTAATTTTTTCTTTTTCGGAGTCACCTAGTGCAG  9920 fluorescence intensity (a.u.)
27. TTTTACTCCTTGTTTGTGCCTTTCTTTTCTTCTTTCCTTCCGGAGTCACCTAGTGCAG  10000 fluorescence intensity (a.u.)
28. CAATGATTCCGGTAGTCAAACTTTTACTATTTACACATCCCGGAGTCACCTAGTGCAG  10000 fluorescence intensity (a.u.)
29. CGGGTGTTGTTGTAAATGCGCGTGTGGTTTGCTTTTTTTTCGGAGTCACCTAGTGCAG  10200 fluorescence intensity (a.u.)
30. AATCCGTACATCCCAGCTCATCTTTCCACTCCGGGTTGCCCGGAGTCACCTAGTGCAG  10300 fluorescence intensity (a.u.)
31. TTATTTCCTTGTTGTTTCGCTGAATTGTCAGTCAAAAGTACGGAGTCACCTAGTGCAG  10600 fluorescence intensity (a.u.)
32. TGAGTTGTGCTTTCTATTTTATATCATTGGATGTTCTTAACGGAGTCACCTAGTGCAG  10600 fluorescence intensity (a.u.)
33. ATAGAATGTCGTATTTTTTGGATTTCTATAGGATTTTGAACGGAGTCACCTAGTGCAG  10600 fluorescence intensity (a.u.)
34. CGTCCTTTTTCTGTTGTCAAGAATCCAAGCTCTCTTCCTTCGGAGTCACCTAGTGCAG  10700 fluorescence intensity (a.u.)
35. CGTCCGCTCTCCGGTGCAAAGCGTACCGTTTGACCAATCGCGGAGTCACCTAGTGCAG  10800 fluorescence intensity (a.u.)
36. CCCTTGTAGATCCGAAAATTTTCCCTAGTTTTTTTTTTTCCGGAGTCACCTAGTGCAG  11200 fluorescence intensity (a.u.)
37. ATTTGATGACTCCTTTTTACCCTTTCCACTTTGCAGTTGCCGGAGTCACCTAGTGCAG  11700 fluorescence intensity (a.u.)
38. ACATACACTACAGCGGCGAACCTTTCCTTATTCTCGCAACCGGAGTCACCTAGTGCAG  12100 fluorescence intensity (a.u.)
39. TTTTCCATTCTTGCGCTTCCAAGTATCGAGCCCCAACTTCCGGAGTCACCTAGTGCAG  12400 fluorescence intensity (a.u.)
40. CTCTGCCTCTGCTTGCTCTGCTCTGTATCTGTGACCATCTCGGAGTCACCTAGTGCAG  12500 fluorescence intensity (a.u.)
41. ATTACTGCTGCTTTGACCCCACCACCTCGTCAGTACAAACCGGAGTCACCTAGTGCAG  12900 fluorescence intensity (a.u.)
42. GATGCCATTTTTAAACAATTCCATGCCTTGTTTCCATTTCCGGAGTCACCTAGTGCAG  13400 fluorescence intensity (a.u.)
